pKd: −log10 of the molar value. Read-outs that look alike come from different tables or passages of the source. At least one read-out could not be matched to a standard name with certainty.
Molecular target: sigma site
Assay: Sigma site binding: inhibition of R(+)-[3H]3-PPP binding
Design: species or system rat
Settings: two site fit, fitted better to 2 site model (P < 0.05)
Description: Membranes were prepared from freshly dissected brains of adult male Sprague-Dawley rats (175-250 g).
R(+-^3 H]3-PPP: Crude membranes were prepared from whole brain (minus cerebellum) as described previously [P. M. Beart et al, J. Neurochem., 53, 779-788 (1989)]. A filtration binding assay was employed under similar conditions to those of Largent et al (1986) with 3 nM R (+)-[^3 H]-3-PPP and a 90 min. incubation at 25° C. (Beart et al, 1989). Non-specific binding was defined with 10 μ1,3-di(2-tolyl)guanidine (DTG).
Binding data were analyzed by the iterative curve fitting programs EBDA and LIGAND as fully described elsewhere [Beart et al, Id., (1989)]. Results obtained from experiments examining spermidine-stimulated binding of ^3 H]TCP were analyzed by the program FLEXIFIT [V. Guardabasso et al, FASEB J., 2, 209-215 (1988)] which iteratively fits data to a sigmoidal model providing estimates of IC50 and slope for the drug under study.

CC(NCCCCc1ccccc1)C(O)c1ccc2c(c1)CCS2 (single isomer, unassigned) [Compound 184]
pKd (read-out: KH = Dissociation constant at high affinity site for two site fit): 8.21 | pKd (read-out: KL = Dissociation constant at low affinity site for two site fit): 5.21
